Positions count from the first letter of the chain named. These are yes or no findings as the source states them, for the method shown. Some entries that bind do so weakly or less than the wild type. Blank lines part the entries; values can stand above or below the binder they belong to.
Assays:
[1] = molecular target: T1, human CD3 complex on Jurkat cells (human) (UniProt P07766+P04234+P09693); test: flow cytometry on Jurkat cells (human CD3 complex), PE anti-human Fc secondary antibody, Example 3.2
[2] = molecular target: T1, human CD3 complex on Jurkat cells (human); test: flow cytometry on Jurkat cells
[3] = molecular target: T1, human CD3 complex on Jurkat cells (human); test: flow cytometry on Jurkat cells (human CD3 complex), method of Example 3.2

Chains of the proteins cited; added tags and fusions are not shown. Lines headed by an entry give the natural chain unless they say otherwise; changes in a name come on top.
UniProt P07766: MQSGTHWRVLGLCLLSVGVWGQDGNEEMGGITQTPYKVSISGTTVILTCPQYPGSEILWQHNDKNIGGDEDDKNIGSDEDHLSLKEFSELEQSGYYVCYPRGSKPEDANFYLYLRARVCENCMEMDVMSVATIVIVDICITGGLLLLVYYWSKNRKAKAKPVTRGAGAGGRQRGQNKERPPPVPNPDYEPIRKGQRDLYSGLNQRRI
UniProt P04234: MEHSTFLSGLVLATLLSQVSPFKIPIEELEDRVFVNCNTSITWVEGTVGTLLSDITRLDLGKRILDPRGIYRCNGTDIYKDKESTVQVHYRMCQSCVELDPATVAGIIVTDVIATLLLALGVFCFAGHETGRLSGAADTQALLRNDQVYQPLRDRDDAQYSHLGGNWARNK
UniProt P09693: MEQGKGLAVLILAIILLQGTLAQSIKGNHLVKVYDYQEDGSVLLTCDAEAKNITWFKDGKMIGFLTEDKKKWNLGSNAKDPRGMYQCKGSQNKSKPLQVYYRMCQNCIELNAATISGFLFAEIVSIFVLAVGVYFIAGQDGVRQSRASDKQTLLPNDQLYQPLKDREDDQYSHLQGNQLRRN

B1: hzsp34.25 (antibody, human IgG1, lambda, L234A L235A, V domains shown)
VH: EVQLVESGGGLVQPGGSLKLSCAASGFTFNTYAMNWVRQASGKGLEWVARIRSKYNNYATYYADSVKDRFTISRDDSKSTLYLQMNSLKTEDTAVYYCARHGNFGQSYVSWFAYWGQGTTVTVSS
VL: QAVVTQEPSLTVSPGGTVTLTCRSSTGAVTTSNYANWVQQKPGQAPRGLIGGTNKRAPGVPARFSGSLLGDKAALTLLGAQPEDEAEYYCALWYSNLWVFGQGTKLTVLG
binding [1]: binds
binding [2]: binds

B2: hzsp34.115 (antibody, human IgG1, lambda, L234A L235A, V domains shown)
VH: B1 VH with A49G
VL: B1 VL with K55S
binding [3]: binds

B3: hzsp34.92 (antibody, human IgG1, lambda, L234A L235A, V domains shown)
VH: B1 VH with A49G, S107R
VL: B1 VL
binding [3]: binds

B4: hzsp34.85 (antibody, human IgG1, lambda, L234A L235A, V domains shown)
VH: B1 VH with A49G, N57G
VL: B1 VL
binding [3]: binds

B6: hzsp34.80 (antibody, human IgG1, lambda, L234A L235A, V domains shown)
VH: B1 VH with Y32A, A49G
VL: B1 VL
binding [3]: binds
binding [2]: binds

B7: hzsp34.84 (antibody, human IgG1, lambda, L234A L235A, V domains shown)
VH: B1 VH with A49G, N56G
VL: B1 VL
binding [3]: binds

B9: hzsp34.110 (antibody, human IgG1, lambda, L234A L235A, V domains shown)
VH: B1 VH with A49G
VL: B1 VL with N96G
binding [3]: binds

B10: hzsp34.102 (antibody, human IgG1, lambda, L234A L235A, V domains shown)
VH: B1 VH with A49G
VL: B1 VL with R23G
binding [3]: binds

B11: hzsp34.113 (antibody, human IgG1, lambda, L234A L235A, V domains shown)
VH: B1 VH with A49G
VL: B1 VL with W93A, Y94A
binding [3]: binds

B14: hzsp34.108 (antibody, human IgG1, lambda, L234A L235A, V domains shown)
VH: B1 VH with A49G
VL: B1 VL with Y94A
binding [3]: binds

B15: hzsp34.82 (antibody, human IgG1, lambda, L234A L235A, V domains shown)
VH: B1 VH with A49G, S53L
VL: B1 VL
binding [3]: binds
binding [2]: binds

B18: hzsp34.111 (antibody, human IgG1, lambda, L234A L235A, V domains shown)
VH: B1 VH with A49G
VL: B1 VL with T30G, T31G
binding [3]: binds

B20: hzsp34.83 (antibody, human IgG1, lambda, L234A L235A, V domains shown)
VH: B1 VH with A49G, Y55A
VL: B1 VL
binding [3]: binds

B21: hzsp34.86 (antibody, human IgG1, lambda, L234A L235A, V domains shown)
VH: B1 VH with A49G, H101A
VL: B1 VL
binding [3]: binds

B22: hzsp34.90 (antibody, human IgG1, lambda, L234A L235A, V domains shown)
VH: B1 VH with A49G, G105Y
VL: B1 VL
binding [3]: binds

B23: hzsp34.78 (antibody, human IgG1, lambda, L234A L235A, V domains shown)
VH: B1 VH with N30G, A49G
VL: B1 VL
binding [3]: binds

B26: hzsp34.103 (antibody, human IgG1, lambda, L234A L235A, V domains shown)
VH: B1 VH with A49G
VL: B1 VL with T30G
binding [3]: binds

B27: hzsp34.89 (antibody, human IgG1, lambda, L234A L235A, V domains shown)
VH: B1 VH with A49G, F104A
VL: B1 VL
binding [3]: binds
binding [2]: binds

B28: hzsp34.100 (antibody, human IgG1, lambda, L234A L235A, V domains shown)
VH: B1 VH with A49G, Q106G, S107R
VL: B1 VL
binding [3]: binds

B29: hzsp34.88 (antibody, human IgG1, lambda, L234A L235A, V domains shown)
VH: B1 VH with A49G, N103G
VL: B1 VL
binding [3]: binds
binding [2]: binds

B31: hzsp34.104 (antibody, human IgG1, lambda, L234A L235A, V domains shown)
VH: B1 VH with A49G
VL: B1 VL with T31G
binding [3]: binds

B32: hzsp34.81 (antibody, human IgG1, lambda, L234A L235A, V domains shown)
VH: B1 VH with A49G, R52S
VL: B1 VL
binding [3]: binds
binding [2]: binds

Further lines, results first:

binding [3]: binds
binding [2]: binds
B5: hzsp34.107 (antibody, human IgG1, lambda, L234A L235A, V domains shown)
VH: B1 VH with A49G
VL: B1 VL with W93A

binding [3]: binds
binding [2]: binds
B8: hzsp34.91 (antibody, human IgG1, lambda, L234A L235A, V domains shown)
VH: B1 VH with A49G, Q106G
VL: B1 VL

binding [3]: binds
B12: hzsp34.94 (antibody, human IgG1, lambda, L234A L235A, V domains shown)
VH: B1 VH with A49G, V109A
VL: B1 VL

binding [3]: binds
B13: hzsp34.79 (antibody, human IgG1, lambda, L234A L235A, V domains shown)
VH: B1 VH with T31G, A49G
VL: B1 VL

binding [3]: binds
B16: hzsp34.105 (antibody, human IgG1, lambda, L234A L235A, V domains shown)
VH: B1 VH with A49G
VL: B1 VL with S32R

binding [3]: binds
B17: hzsp34.109 (antibody, human IgG1, lambda, L234A L235A, V domains shown)
VH: B1 VH with A49G
VL: B1 VL with S95R

binding [3]: binds
B19: hzsp34.106 (antibody, human IgG1, lambda, L234A L235A, V domains shown)
VH: B1 VH with A49G
VL: B1 VL with N33G

binding [3]: binds
B24: hzsp34.112 (antibody, human IgG1, lambda, L234A L235A, V domains shown)
VH: B1 VH with A49G
VL: B1 VL with S32R, N33G

binding [3]: binds
B25: hzsp34.114 (antibody, human IgG1, lambda, L234A L235A, V domains shown)
VH: B1 VH with A49G
VL: B1 VL with S95R, N96G

binding [3]: binds
B30: hzsp34.93 (antibody, human IgG1, lambda, L234A L235A, V domains shown)
VH: B1 VH with A49G, Y108A
VL: B1 VL

From patent US20230374132A1
